Several values for one entry are separate records, joined by “and”; a condition that tells them apart may be missing. Equal values may be shown once. Further values from the same series stand in other lists.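 Treatment: one concentration, 48 hours, 96-well format. Scoring: percent growth, with anything below 10 considered active.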
System: XF 498 CNS
Experiment: NCI-60 one-dose screen, 48 h (100 = growth as untreated, 0 = no growth, -100 = all killed)
Settings: 2.5 mM
Experimental: Growth inhibition of the XF 498 human tumor cell line is measured as a screen for anti-cancer activity. Cells are grown in 96 well plates and exposed to the test compound for 48 hours. Compounds are tested at a single concentration, which is 10^-5 M for most compounds. The reported endpoint is percent growth (GI% or GIPRCNT), where numbers from 0 - 100% represent growth inhibition, and numbers from -100% - 0 represent cell death. For example, a value of 40 represents 60% growth inhibition. A value of 0 means no net growth occurred over the course of the experiment. A value of -40 indicates 40% of cells at the beginning of the experiment died by the end of the experiment. A value of -100 means all cells are dead at the end of the experiment.
NCI-60 Human Tumor Cell Lines Screen was performed using the standard one-dose NCI protocol, which is described in more detail at https://dtp.cancer.gov/discovery_development/nci-60/default.htm.
Compounds with GIPRCNT values below 10 were considered active. Activity score was based on GIPRCNT using the following formula: […]
Score is 0 for GIPRCNT values of 100 or above, 50 for GIPRCNT values of 0, and 100 for GIPRCNT values of -100.

For O=c1[nH]cc(F)c(=O)[nH]1, which growth is on record?
The growth was -5.84% and -10.1% and -40.7%.

Source: PubChem BioAssay AID1794749 (DTP/NCI, 2022)
